PubChem BioAssay AID1224830, NIAID, 2016
The deposit covers about 18,000 reagents; this is a part drawn at random. Of all reagents, about 2,900 (16%) are marked active. 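Calls are made per well; low scores hint the gene aids the LPS response, high scores that it dampens it.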 Repeated entries: four replicate wells of each siRNA pool.

Assay: 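Genes whose knock-down alters the TNF-alpha reporter response to LPS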 (primary screen)
Cells: human THP-1 monocytic leukaemia cells, TNF dual-luciferase reporter clone, PMA-differentiated to macrophage-like cells
Knock-down reagent: siRNA pool against human genes, 50 nM
Timing: LPS for 4 h, given about 3 days after siRNA transfection
Conditions: bacterial LPS (TLR4 ligand), 10 ng/ml
Read-out: 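Ratio of firefly to renilla light, scaled to the plate median and expressed as a robust z-score per replicate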
Reading the numbers: TNF reporter robust z-score: higher = stronger TNF reporter response to LPS
Hit rule: 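a well is active when its z-score exceeds 2.8 or falls below -1.5; control wells carry no call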

With KCNH2 (GeneID 3757), what was measured?
TNF reporter robust z-score: 0.38; Call: inactive

For KCNH2 (GeneID 3757), what does the deposit list?
TNF reporter robust z-score: -0.53; Call: inactive

With KCNH2 (GeneID 3757), what was measured?
TNF reporter robust z-score: -1.59; Call: active

For KCNH2 (GeneID 3757), what was measured?
TNF reporter robust z-score: -1.31; Call: inactive

What did the screen give for FAM43A (GeneID 131583)?
TNF reporter robust z-score: -1.2; Call: inactive

With FAM43A (GeneID 131583), what was measured?
TNF reporter robust z-score: -1.18; Call: inactive

With FAM43A (GeneID 131583), what was measured?
TNF reporter robust z-score: -1; Call: inactive

What did the screen give for FAM43A (GeneID 131583)?
TNF reporter robust z-score: -0.86; Call: inactive

With FCGR1A (GeneID 2209), how do the results read?
TNF reporter robust z-score: 2.71; Call: inactive

What is on record for FCGR1A (GeneID 2209)?
TNF reporter robust z-score: 1.11; Call: inactive

For FCGR1A (GeneID 2209), what does the deposit list?
TNF reporter robust z-score: -0.25; Call: inactive

For FCGR1A (GeneID 2209), what was measured?
TNF reporter robust z-score: 2.49; Call: inactive

How did the screen score RAB40A (GeneID 142684)?
TNF reporter robust z-score: -0.69; Call: inactive

What is on record for RAB40A (GeneID 142684)?
TNF reporter robust z-score: -0.36; Call: inactive

For RAB40A (GeneID 142684), how do the results read?
TNF reporter robust z-score: -0.71; Call: inactive

Which result is listed for RAB40A (GeneID 142684)?
TNF reporter robust z-score: -0.22; Call: inactive

Which result is listed for DGCR6L (GeneID 85359)?
TNF reporter robust z-score: -0.51; Call: inactive

Which result is listed for DGCR6L (GeneID 85359)?
TNF reporter robust z-score: -0.02; Call: inactive

Which result is listed for DGCR6L (GeneID 85359)?
TNF reporter robust z-score: 1.06; Call: inactive

With DGCR6L (GeneID 85359), how do the results read?
TNF reporter robust z-score: -0.38; Call: inactive

What did the screen give for FBXO5 (GeneID 26271)?
TNF reporter robust z-score: 1.7; Call: inactive

Which result is listed for FBXO5 (GeneID 26271)?
TNF reporter robust z-score: 3.29; Call: active

With FBXO5 (GeneID 26271), what was measured?
TNF reporter robust z-score: 1.92; Call: inactive

With FBXO5 (GeneID 26271), what was measured?
TNF reporter robust z-score: 1.05; Call: inactive

For CALR (GeneID 811), what does the deposit list?
TNF reporter robust z-score: -0.59; Call: inactive

With CALR (GeneID 811), how do the results read?
TNF reporter robust z-score: -1.08; Call: inactive

What is on record for CALR (GeneID 811)?
TNF reporter robust z-score: -0.87; Call: inactive

How did the screen score CALR (GeneID 811)?
TNF reporter robust z-score: -0.81; Call: inactive

The listing continues.
How did the screen score PRMT2 (GeneID 3275)?
TNF reporter robust z-score: 1.95; Call: inactive

What did the screen give for PRMT2 (GeneID 3275)?
TNF reporter robust z-score: 1.06; Call: inactive

What is on record for PRMT2 (GeneID 3275)?
TNF reporter robust z-score: 0.78; Call: inactive

How did the screen score PRMT2 (GeneID 3275)?
TNF reporter robust z-score: 1.08; Call: inactive

Which result is listed for UBE2W (GeneID 55284)?
TNF reporter robust z-score: 0.51; Call: inactive

For UBE2W (GeneID 55284), what does the deposit list?
TNF reporter robust z-score: -0.38; Call: inactive

With UBE2W (GeneID 55284), what was measured?
TNF reporter robust z-score: 0.31; Call: inactive

What did the screen give for CATSPERD (GeneID 257062)?
TNF reporter robust z-score: -0.12; Call: inactive

What is on record for CATSPERD (GeneID 257062)?
TNF reporter robust z-score: 0.15; Call: inactive

Which result is listed for CATSPERD (GeneID 257062)?
TNF reporter robust z-score: -0.24; Call: inactive

With CATSPERD (GeneID 257062), what was measured?
TNF reporter robust z-score: -0.13; Call: inactive

How did the screen score ANP32CP (GeneID 23520)?
TNF reporter robust z-score: -0.73; Call: inactive

For ANP32CP (GeneID 23520), how do the results read?
TNF reporter robust z-score: -0.12; Call: inactive

What is on record for ANP32CP (GeneID 23520)?
TNF reporter robust z-score: 0.32; Call: inactive

For ANP32CP (GeneID 23520), how do the results read?
TNF reporter robust z-score: 0.69; Call: inactive

What is on record for DDX39A (GeneID 10212)?
TNF reporter robust z-score: -1.8; Call: active

With DDX39A (GeneID 10212), what was measured?
TNF reporter robust z-score: -1.24; Call: inactive

What is on record for DDX39A (GeneID 10212)?
TNF reporter robust z-score: -1.49; Call: inactive

For DDX39A (GeneID 10212), what does the deposit list?
TNF reporter robust z-score: -0.92; Call: inactive

What is on record for SPINK6 (GeneID 404203)?
TNF reporter robust z-score: 0.68; Call: inactive

What is on record for SPINK6 (GeneID 404203)?
TNF reporter robust z-score: -0.77; Call: inactive

For SPINK6 (GeneID 404203), how do the results read?
TNF reporter robust z-score: -0.49; Call: inactive

With SPINK6 (GeneID 404203), what was measured?
TNF reporter robust z-score: -0.25; Call: inactive

What did the screen give for DEFB136 (GeneID 613210)?
TNF reporter robust z-score: -1.13; Call: inactive

What is on record for DEFB136 (GeneID 613210)?
TNF reporter robust z-score: 0.75; Call: inactive

With DEFB136 (GeneID 613210), what does the deposit list?
TNF reporter robust z-score: -0.82; Call: inactive

What did the screen give for DEFB136 (GeneID 613210)?
TNF reporter robust z-score: -0.72; Call: inactive

For H3C14 (GeneID 126961), how do the results read?
TNF reporter robust z-score: -1.49; Call: inactive

For H3C14 (GeneID 126961), what was measured?
TNF reporter robust z-score: -1.77; Call: active

What is on record for H3C14 (GeneID 126961)?
TNF reporter robust z-score: -1.52; Call: active

What did the screen give for H3C14 (GeneID 126961)?
TNF reporter robust z-score: -1.31; Call: inactive

With PHKA2 (GeneID 5256), how do the results read?
TNF reporter robust z-score: 1.08; Call: inactive

What did the screen give for PHKA2 (GeneID 5256)?
TNF reporter robust z-score: 0.83; Call: inactive

With PHKA2 (GeneID 5256), how do the results read?
TNF reporter robust z-score: 0.88; Call: inactive

How did the screen score PHKA2 (GeneID 5256)?
TNF reporter robust z-score: 2.57; Call: inactive
